Here are results for 61 compounds from PubChem BioAssay AID1273 (Columbia University Molecular Screening Center, 2008).

This is one part of the list. Further columns of the screen follow, without active or inactive calls. The list favours compounds with an active or inconclusive main result.

A short description of this test: inhibitors of insulin promoter-driven GFP, primary screen, imaging, TRM-6 cells (human fetal islet line), eGFP reporter, cell count (AID 1273;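 further: cells exposed to compound for 48 h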). The note with it: measured here: cell count, toxicity, at 2 µM, reporter expression induced with tamoxifen.
Consider `COc1ccc(OC)c2[nH]c(=O)c(CCNC(=O)c3ccc(S(=O)(=O)N(C)C)cc3)cc12`, for which the normalized cell count is 87.2%. In turn, `Cc1ccnc(SCC(=O)c2ccc(Br)cc2)c1C#N` came in with a normalized cell count of 161%. Under `CCOC(=O)N1CCC(c2cc(=O)n3[nH]c(-c4ccccc4)cc3n2)CC1` stands 105%.

Regarding `COc1ccccc1-c1cc(C(F)(F)F)nc(S(=O)(=O)CCCC(=O)Nc2cccnc2Cl)n1`, the normalized cell count turned out to be 73.8%. For the compound `Nc1nc(SCC(=O)NCc2ccc3c(c2)OCO3)n[nH]1`, the normalized cell count worked out at 94.7%. Compound `COC(=O)C1=C(C)N=C2SC(C#N)=C(N)N2C1c1cccc(OC)c1` (stereo unspecified) came in with a normalized cell count of 2.8%. As to `Cc1cccc(NC(=O)CN2C(=O)N/C(=C/c3cc(C)n(C)c3C)C2=O)c1`, the normalized cell count turned out to be 134%.

`O=C(Nc1ccc(Cl)cc1)N1CC=CCC1` had a normalized cell count of 122%. To `CCC(NC(=O)COc1ccc([N+](=O)[O-])cc1)c1ccccc1` (stereo unspecified) belongs 95.7%. With `O=C(O)c1ccccc1Sc1c([N+](=O)[O-])cc(C(F)(F)F)cc1[N+](=O)[O-]`, the normalized cell count was 127%.

As for `O=C(NCCc1ccc(F)cc1)N1CCOCC1`, the normalized cell count came out at 99.5%. `Nc1c2c(nc3ccc(Br)cc13)N(Cc1ccccc1)CC2` displayed a normalized cell count of 63.3%. Under `Cc1ccc(S(=O)(=O)Oc2ccc(C)cc2/C=N/N=C2\NC(=O)C(C)S2)cc1` (stereo unspecified) stands 40.6%; under `Cc1ccc(-n2c(C)csc2=N)cc1`, 136%; under `Cc1cc(C)n2nc(Cc3ccccc3)nc2n1`, 123%.

`Cc1nn(-c2nc3ccccc3s2)c(N)c1-c1ccc(Cl)cc1` displayed a normalized cell count of 111%. Under `Cc1c(CNC(=O)c2cnn3c2NC(c2ccc(Br)cc2)CC3C(F)(F)F)cnn1C` (stereo unspecified) stands 25.6%; under `COc1cccc(OC)c1C(=O)Nc1cc(C)nn1-c1nc2ccccc2[nH]1`, 106%; under `O=C(Nn1c(-c2ccc(Br)cc2)nc2ccccc2c1=O)c1cccnc1`, 85%. `CCOc1ccc(N(Cc2ccccc2F)C2=NC3CS(=O)(=O)CC3S2)cc1` (stereo unspecified): the normalized cell count came out at 57.1%.

For `COc1ccc(CNC(=O)C2(c3ccc(Cl)cc3)CC2)cc1`, the normalized cell count was found to be 99.4%.

As for `CC(C(=O)Nc1cc([N+](=O)[O-])ccc1Cl)N1CCN(c2ccc(O)cc2)CC1` (stereo unspecified), the normalized cell count stood at 127%. In turn, `Clc1ccc(OCCSc2ncccn2)cc1` had a normalized cell count of 115%. Compound `CCCCn1c(N)c(NCCC(C)C)c(=O)[nH]c1=O` returned a normalized cell count of 83.7%. Consider `CN(C)c1cccc(C(=O)OCC(=O)Nc2ccccc2Cl)c1`, for which the normalized cell count was 164%. Compound `CCOC(=O)c1c(C)nc(-c2ccccc2)nc1NC(=O)CC` registered a normalized cell count of 75.9%. Under `Cc1ccccc1NC(=S)c1nc2ccccc2[nH]1` stands 86.7%; under `O=C(NCc1ccco1)c1cc2ccccc2c(=O)o1`, 71%. Turning to `O=C(CN1CCN(Cc2ccccc2F)C1=O)NC1CCCC1`, the normalized cell count was 93.1%. Under `C=CCNc1nnc(Sc2ncccc2[N+](=O)[O-])s1` stands 45.3%; under `COc1ccc(Cn2c(C)nnc2-c2cnn(C)c2N)cc1OC`, 72%; under `O=C(Nc1nnc(COc2ccc(Cl)cc2)s1)c1cccs1`, 104%. The compound `Cc1cccc(Oc2ccc(Cl)cc2N)c1` came in with a normalized cell count of 84.8%. Under `COC(=O)CC1NCCc2cc(OC)c(OC)cc21` (stereo unspecified) stands 152%; under `CC1(C)Cn2c(nnc2-c2cccc(O)c2)S1`, 173%; under `CCOc1ccc2[nH]c3c(N4CCN(c5ccccn5)CC4)ncnc3c2c1`, 111%.

As to `COc1cccc(-c2csc3nc[nH]c(=O)c23)c1`, the normalized cell count stood at 108%.

Compound `CCOCCn1c(SC)nc2c1c(=O)[nH]c(=O)n2C` returned a normalized cell count of 173%. As to `CC1=Nn2c(nnc2-c2ccccc2Cl)SC1`, the normalized cell count amounted to 82.7%. In the case of `Cc1ccc(Nc2nc(N3CCOCC3)nc(N3CCOCC3)n2)cc1`, the normalized cell count turned out to be 83.5%. To `COc1ccc(CCc2nc(C)ccc2O)cc1` belongs 211%; to `C(=C\c1nc2ccccc2[nH]1)/c1ccccc1`, 165%. In turn, `COCCCn1cnc2c(c1=O)c1nc3ccccc3nc1n2-c1ccccc1` displayed a normalized cell count of 112%.

`Cc1c(CCO)sc[n+]1CC(=O)OCCC12CC3CC(CC(C3)C1)C2` came in with a normalized cell count of 106%. To `COc1ccc(C(c2sc3nc(C)nn3c2O)N2CCC(C(N)=O)CC2)cc1OC` (stereo unspecified) belongs 39.2%.

`Clc1ccc2c(N/N=C/c3ccc(Br)cc3)ccnc2c1` displayed a normalized cell count of 98.1%. `O=C(C1CCC1)N1CCc2cc(S(=O)(=O)NCc3ccco3)ccc21` yielded a normalized cell count of 56.7%. `COc1ccc(CSCC(=O)N/N=C/c2ccccc2O)cc1` showed a normalized cell count of 54.2%. Under `COc1cccc(OCCNc2cc(Cl)ccc2[N+](=O)[O-])c1` stands 78.3%.

Turning to `Clc1ccc2c(N/N=C/c3cccc(Br)c3)ccnc2c1`, the normalized cell count amounted to 203%. `CN1CCN(c2ccc(C(=O)c3ccccc3)cc2[N+](=O)[O-])CC1`: the normalized cell count turned out to be 92%. In the case of `CCc1cccc(CC)c1C(O)c1cccnc1` (stereo unspecified), the normalized cell count was determined as 114%. Compound `O=C(NCCCN1CCCC1=O)c1ccc(Cl)c(NS(=O)(=O)c2ccc(F)cc2)c1` displayed a normalized cell count of 162%. `CCOC(=O)N1CCN(C(=O)CN(c2ccc3c(c2)OCO3)S(C)(=O)=O)CC1` returned a normalized cell count of 66.2%. Under `COc1cc(NC(=O)COC(C)=O)cc(OC)c1OC` stands 77.9%. Under `Cc1ccc(-c2nnn(CCC(=O)N3CCCCC3C)n2)cc1` (stereo unspecified) stands 71.3%; under `O=C(CN1CCN(c2ccccc2)CC1)Nc1ccccc1C(F)(F)F`, 42.5%; under `CSc1nc(-c2ccc(Cl)cc2)nn1C(=O)c1ccco1`, 168%. Regarding `Cc1ccc2c(Cl)c(C)c(N3CCCC3)nc2n1`, the normalized cell count turned out to be 144%. In turn, `CCSc1nc(N)c2c(C)c(C)sc2n1` came in with a normalized cell count of 139%. The compound `CCOCCCn1c(=S)[nH]c2ncccc2c1=O` registered a normalized cell count of 79.3%.
